Results are given in words; binding and its absence hold for the method and conditions named. Binding seen in cells or lysates may run through a third protein. Binding calls can cover weak binding; strength is not graded here. For some of these results: Sequences can lack the tags named with a protein.
T1: MBP-B55β (Xenopus) (UniProt A1L3L9)
T1 sequence: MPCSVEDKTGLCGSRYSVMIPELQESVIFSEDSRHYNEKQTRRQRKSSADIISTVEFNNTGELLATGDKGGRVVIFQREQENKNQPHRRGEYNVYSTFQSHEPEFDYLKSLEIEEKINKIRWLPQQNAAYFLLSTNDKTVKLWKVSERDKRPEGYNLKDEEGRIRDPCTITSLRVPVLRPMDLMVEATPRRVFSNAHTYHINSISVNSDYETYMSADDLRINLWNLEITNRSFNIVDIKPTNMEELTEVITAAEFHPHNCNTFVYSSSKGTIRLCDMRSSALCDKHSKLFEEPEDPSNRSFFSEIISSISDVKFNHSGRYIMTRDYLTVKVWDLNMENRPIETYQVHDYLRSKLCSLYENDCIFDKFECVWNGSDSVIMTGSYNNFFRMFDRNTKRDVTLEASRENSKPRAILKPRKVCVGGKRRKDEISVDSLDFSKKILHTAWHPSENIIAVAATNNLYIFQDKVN

Protein sequences, listed by entry. Tags and fused reporters are not part of them.
UniProt P50533: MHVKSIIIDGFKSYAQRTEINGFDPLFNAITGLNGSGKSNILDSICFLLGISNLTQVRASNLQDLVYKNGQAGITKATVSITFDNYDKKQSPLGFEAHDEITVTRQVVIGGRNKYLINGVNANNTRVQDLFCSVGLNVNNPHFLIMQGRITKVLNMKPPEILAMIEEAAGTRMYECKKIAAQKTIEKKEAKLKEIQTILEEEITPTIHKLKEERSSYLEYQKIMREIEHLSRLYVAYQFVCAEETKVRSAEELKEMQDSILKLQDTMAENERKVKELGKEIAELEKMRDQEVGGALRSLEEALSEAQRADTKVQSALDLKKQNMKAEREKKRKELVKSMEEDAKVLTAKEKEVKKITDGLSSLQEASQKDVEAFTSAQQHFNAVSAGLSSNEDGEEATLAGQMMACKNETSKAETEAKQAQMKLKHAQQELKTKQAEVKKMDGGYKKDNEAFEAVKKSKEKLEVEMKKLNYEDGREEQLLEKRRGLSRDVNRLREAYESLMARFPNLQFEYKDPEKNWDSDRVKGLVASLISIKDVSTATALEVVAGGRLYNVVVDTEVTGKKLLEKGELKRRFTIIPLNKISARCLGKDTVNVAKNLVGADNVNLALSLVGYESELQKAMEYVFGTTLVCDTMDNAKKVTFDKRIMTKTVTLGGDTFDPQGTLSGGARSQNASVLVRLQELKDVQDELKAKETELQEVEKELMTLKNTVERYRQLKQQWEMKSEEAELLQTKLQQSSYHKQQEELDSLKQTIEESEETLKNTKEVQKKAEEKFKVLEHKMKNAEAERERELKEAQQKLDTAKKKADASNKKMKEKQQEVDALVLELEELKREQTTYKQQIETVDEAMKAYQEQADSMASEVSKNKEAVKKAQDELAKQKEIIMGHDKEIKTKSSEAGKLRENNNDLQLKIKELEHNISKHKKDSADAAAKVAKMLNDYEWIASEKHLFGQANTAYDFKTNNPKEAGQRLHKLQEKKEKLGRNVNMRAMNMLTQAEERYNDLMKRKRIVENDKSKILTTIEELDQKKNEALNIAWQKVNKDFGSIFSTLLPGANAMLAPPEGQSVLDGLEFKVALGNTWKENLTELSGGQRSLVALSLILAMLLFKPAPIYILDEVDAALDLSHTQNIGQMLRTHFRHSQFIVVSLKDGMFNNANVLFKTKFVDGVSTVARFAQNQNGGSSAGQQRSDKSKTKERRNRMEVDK
UniProt Q6NTJ3: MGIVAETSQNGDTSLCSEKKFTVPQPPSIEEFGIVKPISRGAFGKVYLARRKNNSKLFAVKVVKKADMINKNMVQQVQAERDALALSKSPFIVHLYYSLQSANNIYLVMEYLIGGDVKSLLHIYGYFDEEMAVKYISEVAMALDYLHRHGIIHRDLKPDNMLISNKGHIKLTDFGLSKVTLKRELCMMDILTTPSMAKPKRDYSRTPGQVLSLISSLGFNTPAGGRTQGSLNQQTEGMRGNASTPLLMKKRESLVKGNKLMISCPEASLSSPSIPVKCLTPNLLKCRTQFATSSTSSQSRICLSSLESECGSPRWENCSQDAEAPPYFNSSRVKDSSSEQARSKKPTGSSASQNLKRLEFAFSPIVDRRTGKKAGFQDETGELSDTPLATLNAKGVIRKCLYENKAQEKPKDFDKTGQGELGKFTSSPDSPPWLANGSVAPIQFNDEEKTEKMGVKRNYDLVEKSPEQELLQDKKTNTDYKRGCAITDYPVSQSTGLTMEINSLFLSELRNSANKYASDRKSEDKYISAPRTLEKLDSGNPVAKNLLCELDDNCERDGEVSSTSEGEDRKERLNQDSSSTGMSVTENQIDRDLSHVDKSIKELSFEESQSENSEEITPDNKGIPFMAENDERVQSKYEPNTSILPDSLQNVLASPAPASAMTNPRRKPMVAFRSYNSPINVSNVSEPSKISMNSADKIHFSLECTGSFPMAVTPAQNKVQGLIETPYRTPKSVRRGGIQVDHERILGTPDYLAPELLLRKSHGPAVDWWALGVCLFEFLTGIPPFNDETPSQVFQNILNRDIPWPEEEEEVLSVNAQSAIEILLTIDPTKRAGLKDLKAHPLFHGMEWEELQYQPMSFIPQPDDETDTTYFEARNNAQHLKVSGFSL
UniProt P70032: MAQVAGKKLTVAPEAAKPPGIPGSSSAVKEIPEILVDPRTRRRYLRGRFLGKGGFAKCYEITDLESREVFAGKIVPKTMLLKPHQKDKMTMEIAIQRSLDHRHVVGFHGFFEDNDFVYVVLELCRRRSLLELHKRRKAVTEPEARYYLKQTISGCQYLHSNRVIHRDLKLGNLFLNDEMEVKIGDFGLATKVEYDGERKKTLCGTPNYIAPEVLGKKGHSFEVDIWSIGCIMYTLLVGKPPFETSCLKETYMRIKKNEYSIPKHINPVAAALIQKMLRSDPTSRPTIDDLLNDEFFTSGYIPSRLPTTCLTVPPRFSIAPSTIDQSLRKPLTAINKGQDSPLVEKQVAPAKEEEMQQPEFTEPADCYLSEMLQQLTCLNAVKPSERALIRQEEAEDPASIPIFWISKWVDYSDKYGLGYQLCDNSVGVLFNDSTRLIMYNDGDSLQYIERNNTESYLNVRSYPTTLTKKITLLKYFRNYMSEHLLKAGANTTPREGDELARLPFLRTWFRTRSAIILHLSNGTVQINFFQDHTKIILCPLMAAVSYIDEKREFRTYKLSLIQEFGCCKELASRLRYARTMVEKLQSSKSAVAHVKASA

B1: DNA replication protein Mcm2 (protein, UniProt P55861 1-886)
chain: MADSSESFNIATSPRAGSRRDALTSSPGRDLPPFEDESEGMFGDGVVPEEEEDGEELIGDAMERDYRPISELDRYEVEGLDDEEDVEDLTASQREAAEQSMRMRDREMGRELGRMRRGLLYDSDEEEEDRPARKRRMAERAAEGAPEEDEEMIESIENLEDMKGHTVREWVSMAATRLEIYHRFKNFLRTHVDEHGHNVFKEKISDMCKENKESLPVNYEDLAAREHVLAYFLPEAPAEMLKIFDEAAKEVVLVMYPKYDRIAREIHVRISHLPLVEELRSLRQLHLNQLIRTSGVVTCCTGVLPQLSMVKYNCNKCNFILGPFFQSQNQEVRPGSCPECQSFGPFEINMEETVYQNYQRITIQESPGKVAAGRLPRSKDAILLADLVDSCKPGDEIELTGIYHNNYDGSLNTANGFPVFATVILANHITKKDDKVAVGELTDEDVKAIVALSKDERIGERIFASIAPSIYGHEDIKRGLALALFGGEAKNPGGKHKVRGDINVLLCGDPGTAKSQFLKYVEKVASRAVFTTGQGASAVGLTAYVQRHPVTKEWTLEAGALVLADRGVCLIDEFDKMNDQDRTSIHEAMEQQSISISKAGIVTSLQARCTVIAASNPIGGRYDPSLTFSENVDLTEPIVSRFDILCVVRDTVDPVQDEMLARFVVSSHIKHHPSSKDIANGDAAEFALPNTFGVEALPQEVLKKYIMYAKEKIRPKLNQMDQDKVAKMYSDLRKESMATGSIPITVRHIESMIRMAEAHARMHLRDYVVEDDVNMAIRVMLESFIDTQKFSVMRSMRKTFARYLAFRRDNNELLLFVLKQLIAEQVTYQRNRYGAQQDTIEVPEKDLVDKARQINIHNLSAFYDSDLFKMNKFTHDVKKKLIIQQF

Each molecule was assayed against T1, MBP-B55β (Xenopus) (assay: pull-down; about 10 μg MBP-B55 on amylose beads (20 μl) incubated in interphase Xenopus egg extracts (40 μl), 30 min, room temperature; immunoblotting; control: amylose beads not conjugated with proteins; only the target purified).

Molecule | binding
catalytic subunit of PP2A (Xenopus (endogenous in egg extracts)) (enzyme) | binds
chromosomal passenger complex (CPC) component Incenp (Xenopus (endogenous in egg extracts)) | binds
ubiquitin E3 ligase Ube3a (Xenopus (endogenous in egg extracts)) (enzyme) | binds

What follows are molecules tested against MBP-B55α (Xenopus) (UniProt Q6IRD3) in the same assay as above.

Molecule | binding
Condensin subunit Smc2 (from UniProt P50533 1-1203) | no binding
mitotic kinase Mastl (from UniProt Q6NTJ3 1-887) (enzyme) | binds
mitotic kinase Plk1 (from UniProt P70032 1-598) (enzyme) | binds
B1 | binds
